{"source": "patent US4087418A", "about": "“Hexapeptides and methods for their production” (Parke, Davis & Company, priority 1976, dated 1978)", "test_system": "LRF (luteinizing hormone release factor) induced luteinizing hormone (LH) release", "assay": "In vitro LRF antagonist test in rat anterior pituitary cell cultures", "format": "cell-based", "conditions": "test compound Molar Conc. 1×10^-6, LH released into culture medium", "from_the_text": "Hexapeptides of this invention were screened for LRF antagonist activity in vitro using rat anterior pituitary cell cultures as described by Vale et. al. [Endocrinology, 91, 562 (1972)]. The inhibition of LRF (luteinizing hormone release factor) induced luteinizing hormone (LH) release into the culture medium is the endpoint in this in vitro bioassay.", "note": "Counter-ions that a name gives are not always drawn. At least one peptide structure holds a part that was inferred or is arguable (an end, a ring closure or a residue). Where a SMILES comes first, the peptide text is derived from it. [ ]: non-standard residue; d: D form. The star is where a group is joined. Boc = CC(C)(C)OC(=O)*; Bn = c1ccc(C*)cc1", "data": [{"smiles": "CCNC(=O)[C@@H]1CCCN1C(=O)[C@H](CCCNC(=N)N)NC(=O)[C@H](CC(C)C)NC(=O)[C@@H](C)NC(=O)[C@H](Cc1ccc(OCc2ccccc2)cc1)NC(=O)[C@H](COCc1ccccc1)NC(=O)OC(C)(C)C", "note": "[N^α -t-Butoxycarbonyl-O-benzyl-L-seryl-O-benzyl-L-tyrosyl-D-alanyl-L-leucyl-L- arginyl-L-proline N-ethylamide, hydrochloride] (Boc-S(Bn)Y(Bn)[dA]LRP-NHEt)", "values": [{"measurement": "LH Value", "value": 12.34, "unit": "ng/mL"}]}]}
